Results reported in paper doi:10.1101/640185.
Where two headings read alike, the source gives them in different places. These are yes or no findings as the source states them, for the method shown. Binding seen in cells or lysates may run through a third protein. A result given as binding can be weak or reduced; the word gives no strength.

Protein sequences, listed by entry. Tags and fused reporters are not part of them. Lines headed by an entry give the natural chain unless they say otherwise; changes in a name come on top.
UniProt P21707: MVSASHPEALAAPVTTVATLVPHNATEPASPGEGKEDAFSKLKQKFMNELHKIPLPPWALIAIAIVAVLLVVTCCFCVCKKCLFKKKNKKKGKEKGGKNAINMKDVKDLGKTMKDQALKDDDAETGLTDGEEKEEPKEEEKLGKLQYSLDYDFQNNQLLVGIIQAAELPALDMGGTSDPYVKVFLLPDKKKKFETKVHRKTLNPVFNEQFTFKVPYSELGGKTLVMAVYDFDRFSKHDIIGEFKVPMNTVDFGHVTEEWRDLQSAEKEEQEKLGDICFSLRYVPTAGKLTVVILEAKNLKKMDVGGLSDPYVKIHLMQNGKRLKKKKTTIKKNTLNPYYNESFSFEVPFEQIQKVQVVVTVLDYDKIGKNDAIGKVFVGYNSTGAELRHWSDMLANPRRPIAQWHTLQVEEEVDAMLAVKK
UniProt Q9JIS5: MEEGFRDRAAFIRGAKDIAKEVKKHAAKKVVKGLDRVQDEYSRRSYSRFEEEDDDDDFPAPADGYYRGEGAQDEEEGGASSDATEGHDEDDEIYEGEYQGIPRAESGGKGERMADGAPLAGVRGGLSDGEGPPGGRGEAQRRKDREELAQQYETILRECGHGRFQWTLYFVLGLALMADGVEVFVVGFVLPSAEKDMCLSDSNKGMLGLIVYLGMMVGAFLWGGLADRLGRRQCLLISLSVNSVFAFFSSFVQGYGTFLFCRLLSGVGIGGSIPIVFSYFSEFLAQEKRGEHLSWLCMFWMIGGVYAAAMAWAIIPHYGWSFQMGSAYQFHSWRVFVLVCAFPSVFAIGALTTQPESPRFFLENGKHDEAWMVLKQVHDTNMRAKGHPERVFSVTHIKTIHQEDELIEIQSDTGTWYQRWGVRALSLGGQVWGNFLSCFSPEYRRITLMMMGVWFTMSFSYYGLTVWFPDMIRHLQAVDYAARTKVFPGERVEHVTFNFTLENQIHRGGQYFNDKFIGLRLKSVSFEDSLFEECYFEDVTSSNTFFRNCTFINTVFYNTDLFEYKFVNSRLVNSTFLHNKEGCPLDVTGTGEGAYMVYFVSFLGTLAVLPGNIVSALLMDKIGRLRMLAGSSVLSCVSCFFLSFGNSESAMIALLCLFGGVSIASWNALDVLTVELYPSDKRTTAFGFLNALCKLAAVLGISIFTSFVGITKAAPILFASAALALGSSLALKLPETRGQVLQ

Tests used:
Assay in all cases: pull-down
[1] = target: glutathione-S-transferase–synaptotagmin 1 fusion protein (UniProt P21707)
[2] = target: glutathione-S-transferase–synaptotagmin 1 fusion protein (UniProt P21707); remark: listed apart in the source
[3] = target: glutathione-S-transferase–synaptotagmin 1 fusion protein (UniProt P21707); remark: listed apart in the source

binding [1]: binds | binding [2]: binds | binding [3]: binds
Substance: Synaptic Vesicle protein 2A (from UniProt Q9JIS5 1-742)
